Among the targets are ACVR2B-Halo (human) (UniProt Q13705); ALK1-Halo (human) (UniProt P37023); ALK6-Halo (human) (UniProt O00238).
Common to all, as to test: Ligand Surface Binding Assay
A further test has as its target T1, ALK5-Halo (human) (UniProt P36897).
T1 sequence: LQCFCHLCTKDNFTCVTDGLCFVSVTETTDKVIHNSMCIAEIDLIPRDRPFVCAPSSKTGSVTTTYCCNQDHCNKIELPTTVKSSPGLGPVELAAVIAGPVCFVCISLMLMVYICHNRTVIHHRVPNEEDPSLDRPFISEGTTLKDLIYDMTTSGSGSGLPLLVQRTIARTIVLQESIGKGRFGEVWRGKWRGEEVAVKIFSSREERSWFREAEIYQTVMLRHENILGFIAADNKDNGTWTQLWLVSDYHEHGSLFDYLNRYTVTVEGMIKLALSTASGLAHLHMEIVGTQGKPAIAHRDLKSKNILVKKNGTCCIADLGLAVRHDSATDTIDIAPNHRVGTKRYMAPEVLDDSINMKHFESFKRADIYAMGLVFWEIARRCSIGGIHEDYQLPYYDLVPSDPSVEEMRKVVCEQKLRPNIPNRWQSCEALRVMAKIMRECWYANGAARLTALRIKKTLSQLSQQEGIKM

By UniProt entry, the sequences of proteins in these tests, tags left out. Residues count along the entry.
UniProt Q13705, residues 19-512: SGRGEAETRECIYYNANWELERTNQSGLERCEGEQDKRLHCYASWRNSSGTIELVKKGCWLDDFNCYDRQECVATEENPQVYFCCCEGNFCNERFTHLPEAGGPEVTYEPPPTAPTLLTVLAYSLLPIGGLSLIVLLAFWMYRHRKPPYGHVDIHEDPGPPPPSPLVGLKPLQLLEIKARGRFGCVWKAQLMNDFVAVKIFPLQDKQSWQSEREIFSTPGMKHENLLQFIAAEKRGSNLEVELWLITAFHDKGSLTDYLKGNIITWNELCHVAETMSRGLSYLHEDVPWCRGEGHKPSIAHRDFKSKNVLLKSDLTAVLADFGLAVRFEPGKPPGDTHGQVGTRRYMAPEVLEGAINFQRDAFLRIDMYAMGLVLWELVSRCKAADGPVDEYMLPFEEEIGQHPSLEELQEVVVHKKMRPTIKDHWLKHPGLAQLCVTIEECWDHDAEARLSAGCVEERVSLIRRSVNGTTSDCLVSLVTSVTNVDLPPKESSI
UniProt P37023, residues 22-503: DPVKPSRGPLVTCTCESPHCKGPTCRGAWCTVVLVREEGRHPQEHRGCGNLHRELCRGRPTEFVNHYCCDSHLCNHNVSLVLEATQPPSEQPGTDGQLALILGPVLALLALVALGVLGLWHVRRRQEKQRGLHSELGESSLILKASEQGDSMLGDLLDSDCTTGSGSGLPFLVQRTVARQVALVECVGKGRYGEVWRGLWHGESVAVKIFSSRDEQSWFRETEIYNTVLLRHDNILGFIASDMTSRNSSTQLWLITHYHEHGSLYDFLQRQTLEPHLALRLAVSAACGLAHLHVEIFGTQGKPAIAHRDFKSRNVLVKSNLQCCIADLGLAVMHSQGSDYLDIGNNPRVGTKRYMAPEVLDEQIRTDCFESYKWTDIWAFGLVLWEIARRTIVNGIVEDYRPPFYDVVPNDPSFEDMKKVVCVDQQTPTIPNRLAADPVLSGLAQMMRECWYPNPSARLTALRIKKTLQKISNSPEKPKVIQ
UniProt O00238, residues 14-502: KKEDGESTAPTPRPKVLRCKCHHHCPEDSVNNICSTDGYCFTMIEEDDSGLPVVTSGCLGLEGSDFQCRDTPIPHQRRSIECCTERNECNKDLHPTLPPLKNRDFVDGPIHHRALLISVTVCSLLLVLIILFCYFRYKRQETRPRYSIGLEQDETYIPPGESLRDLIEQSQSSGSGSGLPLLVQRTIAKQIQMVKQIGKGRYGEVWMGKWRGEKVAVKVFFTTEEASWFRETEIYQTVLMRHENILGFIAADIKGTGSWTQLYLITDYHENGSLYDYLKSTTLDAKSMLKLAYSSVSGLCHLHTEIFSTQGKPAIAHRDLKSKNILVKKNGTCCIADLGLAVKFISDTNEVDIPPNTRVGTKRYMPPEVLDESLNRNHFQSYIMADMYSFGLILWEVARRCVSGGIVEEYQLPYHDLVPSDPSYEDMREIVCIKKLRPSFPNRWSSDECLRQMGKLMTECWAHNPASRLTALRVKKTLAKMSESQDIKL

The record followed here is article doi:10.1101/2022.03.04.482944.

These are yes or no findings as the source states them, for the method shown. Some binding calls cover weakened binding; strength is not graded here.

B1: BMP9-SiR-d12 (ligand, UniProt Q9UK05 320-429)
chain: SAGAGSHCQKTSLRVNFEDIGWDSWIIAPKEYEAYECKGGCFFPLADDVTPTKHAIVQTLVHLKFPTKVGKACCVPTKLSPISVLYKDDMGVPTLKYHYEGMSVAECGCR
modifications: SiR-d12 label (NHS-SiR-d12 ester, 5-fold molar excess)
For B1, the binding entry was “no binding (tested: 0.3 nM)” with ACVR2B-Halo (human), “binds” with ALK1-Halo (human), “no binding (tested: 0.3 nM)” in the test with ALK5-Halo (human) and “no binding (tested: 0.3 nM)” with ALK6-Halo (human).
